# Assay results reported in the supplement of paper PMC6411743.
# Amino acid sequences for entries named in this document (tags omitted). A change or cut given only in a name is not applied to a line headed by its entry.
# UniProt O14907: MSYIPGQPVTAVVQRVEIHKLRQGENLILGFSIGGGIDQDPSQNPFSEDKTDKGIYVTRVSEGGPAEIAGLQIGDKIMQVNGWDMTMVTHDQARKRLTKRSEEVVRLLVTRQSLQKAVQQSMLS
# UniProt O15294: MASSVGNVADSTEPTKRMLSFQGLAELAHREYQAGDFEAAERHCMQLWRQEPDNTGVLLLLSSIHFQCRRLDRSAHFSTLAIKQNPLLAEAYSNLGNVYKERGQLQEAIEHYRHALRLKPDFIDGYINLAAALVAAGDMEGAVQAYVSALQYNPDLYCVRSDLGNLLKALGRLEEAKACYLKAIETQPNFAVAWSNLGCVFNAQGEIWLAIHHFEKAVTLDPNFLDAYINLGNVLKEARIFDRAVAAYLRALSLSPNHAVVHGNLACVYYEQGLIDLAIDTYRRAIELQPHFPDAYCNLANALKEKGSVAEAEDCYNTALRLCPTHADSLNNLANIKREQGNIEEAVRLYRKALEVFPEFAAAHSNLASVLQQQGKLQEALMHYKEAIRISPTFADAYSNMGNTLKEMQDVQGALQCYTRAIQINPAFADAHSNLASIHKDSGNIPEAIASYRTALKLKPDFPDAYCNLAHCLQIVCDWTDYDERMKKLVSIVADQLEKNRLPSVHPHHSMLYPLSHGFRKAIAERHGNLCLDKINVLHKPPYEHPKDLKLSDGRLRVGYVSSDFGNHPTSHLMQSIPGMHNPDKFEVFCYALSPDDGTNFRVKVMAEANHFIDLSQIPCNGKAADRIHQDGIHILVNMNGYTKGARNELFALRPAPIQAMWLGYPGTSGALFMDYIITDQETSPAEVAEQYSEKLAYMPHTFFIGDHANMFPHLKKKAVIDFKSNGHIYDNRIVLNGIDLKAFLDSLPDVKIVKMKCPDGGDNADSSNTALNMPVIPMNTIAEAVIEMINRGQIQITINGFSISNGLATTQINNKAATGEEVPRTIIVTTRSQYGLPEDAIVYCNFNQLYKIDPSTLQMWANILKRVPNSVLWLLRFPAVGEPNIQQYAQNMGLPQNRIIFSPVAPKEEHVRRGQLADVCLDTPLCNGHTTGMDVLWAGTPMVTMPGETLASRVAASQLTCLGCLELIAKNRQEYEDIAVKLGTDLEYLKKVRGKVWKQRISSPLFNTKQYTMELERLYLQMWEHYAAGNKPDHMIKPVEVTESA
# UniProt O00165, whole entry: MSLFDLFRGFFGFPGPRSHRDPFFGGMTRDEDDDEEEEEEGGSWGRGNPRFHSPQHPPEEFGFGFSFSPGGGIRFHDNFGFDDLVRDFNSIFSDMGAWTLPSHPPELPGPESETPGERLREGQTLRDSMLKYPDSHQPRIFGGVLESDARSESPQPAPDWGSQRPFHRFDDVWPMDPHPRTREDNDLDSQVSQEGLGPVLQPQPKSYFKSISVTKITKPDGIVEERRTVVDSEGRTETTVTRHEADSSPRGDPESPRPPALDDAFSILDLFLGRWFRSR
# UniProt O14818: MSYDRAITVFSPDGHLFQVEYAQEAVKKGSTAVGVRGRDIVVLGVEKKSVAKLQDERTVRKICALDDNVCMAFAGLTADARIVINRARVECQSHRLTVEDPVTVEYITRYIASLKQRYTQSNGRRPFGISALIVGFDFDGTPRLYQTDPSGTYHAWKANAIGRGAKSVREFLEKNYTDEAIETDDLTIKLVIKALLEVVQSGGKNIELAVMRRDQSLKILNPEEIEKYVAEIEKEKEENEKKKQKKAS
# UniProt O15127: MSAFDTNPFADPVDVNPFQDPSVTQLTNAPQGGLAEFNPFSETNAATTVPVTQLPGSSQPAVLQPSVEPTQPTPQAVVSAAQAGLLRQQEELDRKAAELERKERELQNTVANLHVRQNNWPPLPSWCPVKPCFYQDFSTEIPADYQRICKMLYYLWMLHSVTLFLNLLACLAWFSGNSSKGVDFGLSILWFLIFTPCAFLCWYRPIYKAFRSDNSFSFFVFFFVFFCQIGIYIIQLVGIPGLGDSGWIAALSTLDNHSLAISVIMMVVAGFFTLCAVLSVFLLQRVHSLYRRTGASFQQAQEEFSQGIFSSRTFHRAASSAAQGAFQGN
# UniProt O14802: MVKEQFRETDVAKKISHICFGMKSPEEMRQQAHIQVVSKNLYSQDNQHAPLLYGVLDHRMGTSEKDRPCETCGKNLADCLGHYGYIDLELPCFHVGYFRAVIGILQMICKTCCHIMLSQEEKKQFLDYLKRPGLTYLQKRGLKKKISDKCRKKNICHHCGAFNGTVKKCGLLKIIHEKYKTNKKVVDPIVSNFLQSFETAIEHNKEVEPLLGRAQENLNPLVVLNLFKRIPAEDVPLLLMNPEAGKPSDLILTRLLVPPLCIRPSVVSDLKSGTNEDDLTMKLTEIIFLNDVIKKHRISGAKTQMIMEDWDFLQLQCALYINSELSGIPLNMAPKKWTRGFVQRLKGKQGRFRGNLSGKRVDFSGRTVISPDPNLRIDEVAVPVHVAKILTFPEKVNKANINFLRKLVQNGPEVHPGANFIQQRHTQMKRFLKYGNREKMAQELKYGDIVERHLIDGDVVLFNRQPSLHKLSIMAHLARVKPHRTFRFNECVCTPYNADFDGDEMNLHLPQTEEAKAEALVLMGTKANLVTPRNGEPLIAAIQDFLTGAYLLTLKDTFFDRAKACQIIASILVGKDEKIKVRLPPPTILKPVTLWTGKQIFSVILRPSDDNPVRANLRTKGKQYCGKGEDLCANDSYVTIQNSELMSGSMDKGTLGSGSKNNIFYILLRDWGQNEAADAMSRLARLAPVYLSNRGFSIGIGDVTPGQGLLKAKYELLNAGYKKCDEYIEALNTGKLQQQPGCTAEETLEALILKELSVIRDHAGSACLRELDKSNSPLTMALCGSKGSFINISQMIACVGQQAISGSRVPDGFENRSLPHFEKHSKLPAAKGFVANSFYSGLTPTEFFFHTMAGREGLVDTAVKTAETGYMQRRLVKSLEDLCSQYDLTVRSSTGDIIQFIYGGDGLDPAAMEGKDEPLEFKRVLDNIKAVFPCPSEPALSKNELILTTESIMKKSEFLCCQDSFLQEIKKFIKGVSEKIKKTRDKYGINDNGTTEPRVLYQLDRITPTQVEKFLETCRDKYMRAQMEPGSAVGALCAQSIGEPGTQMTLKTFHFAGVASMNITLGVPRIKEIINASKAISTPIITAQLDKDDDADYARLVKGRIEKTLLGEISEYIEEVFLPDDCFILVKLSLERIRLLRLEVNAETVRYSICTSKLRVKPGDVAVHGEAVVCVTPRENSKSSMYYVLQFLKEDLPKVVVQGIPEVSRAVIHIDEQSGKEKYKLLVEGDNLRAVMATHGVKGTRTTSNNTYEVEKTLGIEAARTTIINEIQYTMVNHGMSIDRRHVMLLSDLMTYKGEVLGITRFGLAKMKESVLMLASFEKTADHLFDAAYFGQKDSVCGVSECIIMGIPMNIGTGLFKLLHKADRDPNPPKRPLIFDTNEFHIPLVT
# UniProt O43818: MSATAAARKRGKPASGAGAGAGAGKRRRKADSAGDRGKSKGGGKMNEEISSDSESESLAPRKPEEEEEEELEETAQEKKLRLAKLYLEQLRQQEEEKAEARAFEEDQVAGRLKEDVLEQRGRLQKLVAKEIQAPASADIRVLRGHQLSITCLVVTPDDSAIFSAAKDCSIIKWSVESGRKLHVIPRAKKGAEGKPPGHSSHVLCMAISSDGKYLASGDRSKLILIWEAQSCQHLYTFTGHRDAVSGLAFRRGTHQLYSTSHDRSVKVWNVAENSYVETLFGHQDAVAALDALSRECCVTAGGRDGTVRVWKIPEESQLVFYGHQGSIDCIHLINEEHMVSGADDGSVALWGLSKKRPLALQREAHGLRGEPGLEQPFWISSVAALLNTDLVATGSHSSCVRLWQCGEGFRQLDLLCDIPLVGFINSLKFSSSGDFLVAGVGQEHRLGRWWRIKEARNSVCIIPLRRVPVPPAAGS
# UniProt O14639: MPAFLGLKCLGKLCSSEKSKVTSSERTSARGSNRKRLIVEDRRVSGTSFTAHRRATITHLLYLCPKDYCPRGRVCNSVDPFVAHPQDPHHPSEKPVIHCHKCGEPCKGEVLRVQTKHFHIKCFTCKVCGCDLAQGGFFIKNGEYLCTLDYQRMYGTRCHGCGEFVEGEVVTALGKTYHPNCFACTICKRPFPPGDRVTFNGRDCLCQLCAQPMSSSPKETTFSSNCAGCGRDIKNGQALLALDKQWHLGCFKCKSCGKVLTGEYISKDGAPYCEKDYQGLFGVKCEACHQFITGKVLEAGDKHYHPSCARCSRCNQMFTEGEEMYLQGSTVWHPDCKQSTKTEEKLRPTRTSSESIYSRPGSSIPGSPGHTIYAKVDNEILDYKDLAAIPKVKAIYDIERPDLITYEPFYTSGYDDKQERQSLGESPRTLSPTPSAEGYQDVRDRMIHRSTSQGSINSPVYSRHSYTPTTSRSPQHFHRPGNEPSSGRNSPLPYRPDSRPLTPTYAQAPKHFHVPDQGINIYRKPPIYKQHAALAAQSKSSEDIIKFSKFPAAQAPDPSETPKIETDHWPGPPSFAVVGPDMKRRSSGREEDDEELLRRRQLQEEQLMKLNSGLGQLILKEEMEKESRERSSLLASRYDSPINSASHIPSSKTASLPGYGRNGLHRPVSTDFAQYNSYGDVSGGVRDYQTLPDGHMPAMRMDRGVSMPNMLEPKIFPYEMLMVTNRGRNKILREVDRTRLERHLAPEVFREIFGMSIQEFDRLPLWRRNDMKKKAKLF
# UniProt O14908: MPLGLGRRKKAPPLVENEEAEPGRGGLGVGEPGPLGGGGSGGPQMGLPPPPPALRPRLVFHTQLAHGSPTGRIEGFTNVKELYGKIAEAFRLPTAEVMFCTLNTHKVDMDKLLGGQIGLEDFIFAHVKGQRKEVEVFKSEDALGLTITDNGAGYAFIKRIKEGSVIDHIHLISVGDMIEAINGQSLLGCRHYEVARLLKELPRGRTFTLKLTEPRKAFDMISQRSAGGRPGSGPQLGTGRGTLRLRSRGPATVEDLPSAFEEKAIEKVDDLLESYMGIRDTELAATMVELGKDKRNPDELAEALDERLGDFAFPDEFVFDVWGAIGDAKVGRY
# UniProt O15084: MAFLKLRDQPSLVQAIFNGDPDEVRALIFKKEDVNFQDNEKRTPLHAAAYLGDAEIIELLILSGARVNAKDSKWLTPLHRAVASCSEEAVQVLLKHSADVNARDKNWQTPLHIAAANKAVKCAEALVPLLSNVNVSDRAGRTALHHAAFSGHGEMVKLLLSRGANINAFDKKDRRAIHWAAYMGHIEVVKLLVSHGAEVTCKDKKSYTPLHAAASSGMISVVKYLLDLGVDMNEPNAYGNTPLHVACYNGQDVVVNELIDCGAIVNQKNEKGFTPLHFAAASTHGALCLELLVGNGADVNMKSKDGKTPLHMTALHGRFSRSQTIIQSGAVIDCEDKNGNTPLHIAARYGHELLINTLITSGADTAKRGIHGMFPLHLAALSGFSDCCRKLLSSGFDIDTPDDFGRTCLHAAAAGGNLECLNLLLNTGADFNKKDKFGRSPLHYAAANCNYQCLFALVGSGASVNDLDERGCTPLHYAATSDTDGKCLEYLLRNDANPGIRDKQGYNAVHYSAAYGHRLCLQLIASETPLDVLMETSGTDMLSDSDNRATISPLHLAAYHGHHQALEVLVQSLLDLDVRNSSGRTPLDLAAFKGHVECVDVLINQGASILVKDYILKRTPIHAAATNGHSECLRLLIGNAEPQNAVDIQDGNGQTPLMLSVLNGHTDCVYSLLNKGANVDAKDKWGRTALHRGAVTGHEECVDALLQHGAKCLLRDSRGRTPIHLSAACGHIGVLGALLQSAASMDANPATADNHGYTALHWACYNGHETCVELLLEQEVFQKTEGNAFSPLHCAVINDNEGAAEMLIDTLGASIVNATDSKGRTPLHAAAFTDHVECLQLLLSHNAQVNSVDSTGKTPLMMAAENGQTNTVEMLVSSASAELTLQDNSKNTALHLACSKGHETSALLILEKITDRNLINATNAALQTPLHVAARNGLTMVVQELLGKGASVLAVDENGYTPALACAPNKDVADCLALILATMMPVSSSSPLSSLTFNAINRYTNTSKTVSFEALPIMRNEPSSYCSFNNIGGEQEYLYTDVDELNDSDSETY
# UniProt O14593: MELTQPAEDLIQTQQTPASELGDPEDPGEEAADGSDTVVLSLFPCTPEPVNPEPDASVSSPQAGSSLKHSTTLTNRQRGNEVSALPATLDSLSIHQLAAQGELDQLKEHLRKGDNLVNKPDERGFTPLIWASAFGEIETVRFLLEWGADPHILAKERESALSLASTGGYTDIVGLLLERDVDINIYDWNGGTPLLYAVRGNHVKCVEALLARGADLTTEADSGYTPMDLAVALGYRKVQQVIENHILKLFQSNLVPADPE
# UniProt O43447: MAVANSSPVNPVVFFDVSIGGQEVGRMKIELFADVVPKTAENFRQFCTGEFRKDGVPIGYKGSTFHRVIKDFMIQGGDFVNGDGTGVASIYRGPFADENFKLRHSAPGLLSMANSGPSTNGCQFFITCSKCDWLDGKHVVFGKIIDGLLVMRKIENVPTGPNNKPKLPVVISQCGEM
# ± gives the standard deviation of the averaged measurements. Only a part is listed here, and it is no random draw.
# Compound: Nc1ncnc2c1ncn2[C@@H]1O[C@H](COP(=O)(O)OP(=O)(O)OP(=O)(O)O)[C@@H](O)[C@H]1O [adenosine triphosphate]
# Test: NP40-soluble protein abundance relative to vehicle (solubility fold change) (ratio); higher = more soluble protein in presence of ATP
# In short: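 Jurkat crude lysate prepared with a Dounce homogeniser was treated at eight concentrations spanning 0.1 to 10 mM, 10 min at room temperature then 3 min at 37 °C. Solubilisation with 0.8% NP40 and benzonase and ultracentrifugation preceded TMT labelling of the supernatant for LC-MS/MS. Fold change against the detergent-processed vehicle was determined per replicate from vsn-normalised intensities, across three independent experiments.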
Target,NP40-soluble protein abundance (concentration: 1mM),NP40-soluble protein abundance (concentration: 2mM),NP40-soluble protein abundance (concentration: 4mM),NP40-soluble protein abundance (concentration: 6mM),NP40-soluble protein abundance (concentration: 8mM),NP40-soluble protein abundance (concentration: 10mM)
TAX1BP3 (UniProt O14907),0.947 ± 0.018,0.948 ± 0.015,0.961 ± 0.033,0.943 ± 0.013,0.95 ± 0.054,0.925 ± 0.026
AKAP8 (UniProt O43823),0.974 ± 0.056,0.975 ± 0.047,0.973 ± 0.038,1.02 ± 0.052,0.996 ± 0.042,0.996 ± 0.035
UniProt O43166-2|O43166-3|O43166,1.14 ± 0.18,1.02 ± 0.029,1.165 ± 0.008,1.18 ± 0.082,1.31 ± 0.06,1.36 ± 0.085
OGT (UniProt O15294),1.002 ± 0.009,0.979 ± 0.015,1 ± 0.027,0.985 ± 0.017,0.985 ± 0.019,0.979 ± 0.022
UniProt O00165 and related entries,1.07 ± 0.04,1.04 ± 0.051,1.06 ± 0.074,1.07 ± 0.086,1.07 ± 0.034,1.07 ± 0.059
UniProt O60353 and related entries,0.975 ± 0.092,0.85 ± 0.014,0.956 ± 0.089,0.996 ± 0.097,0.952 ± 0.074,0.95 ± 0.02
CLGN (UniProt O14967),1 ± 0.039,0.994 ± 0.036,0.976 ± 0.039,1.01 ± 0.038,0.968 ± 0.015,0.991 ± 0.03
UniProt O15226 and related entries,0.915 ± 0.017,0.909 ± 0.022,0.9456 ± 0.0046,0.994 ± 0.016,1.01 ± 0.016,1.06 ± 0.033
GTPBP1 (UniProt O00178),1.06 ± 0.035,1.06 ± 0.019,1.06 ± 0.032,1.03 ± 0.047,1.06 ± 0.018,1.05 ± 0.041
UniProt O14787-2,0.909 ± 0.044,0.965 ± 0.063,0.919 ± 0.024,0.859 ± 0.094,0.879 ± 0.028,0.936 ± 0.019
DCTN6 (UniProt O00399),0.992 ± 0.017,0.956 ± 0.022,0.931 ± 0.042,0.985 ± 0.061,0.949 ± 0.05,0.948 ± 0.065
CHMP2A (UniProt O43633),0.996 ± 0.055,1 ± 0.028,1.03 ± 0.016,1.02 ± 0.049,1.05 ± 0.068,0.936 ± 0.14
PIK3C2A (UniProt O00443),0.969 ± 0.022,0.944 ± 0.045,0.91 ± 0.088,0.87 ± 0.076,0.868 ± 0.2,0.884 ± 0.21
PSMA7 (UniProt O14818),0.948 ± 0.049,0.874 ± 0.0094,0.854 ± 0.022,0.881 ± 0.084,0.872 ± 0.057,0.866 ± 0.029
ARPC2 (UniProt O15144),1.05 ± 0.078,1.02 ± 0.081,0.969 ± 0.074,0.975 ± 0.12,1.02 ± 0.066,0.984 ± 0.061
TOR1A (UniProt O14656),1.01 ± 0.037,0.996 ± 0.04,0.964 ± 0.038,0.939 ± 0.088,0.93 ± 0.021,0.978 ± 0.029
UniProt O15042 and related entries,1.15 ± 0.055,1.16 ± 0.046,1.2 ± 0.062,1.26 ± 0.087,1.29 ± 0.071,1.33 ± 0.072
UniProt O60313-2|E5KLJ5,1.01 ± 0.014,0.9706 ± 0.0012,0.96 ± 0.011,0.958 ± 0.026,0.9704 ± 0.0089,0.946 ± 0.02
UniProt O15066 and related entries,0.962 ± 0.063,0.95 ± 0.011,0.98 ± 0.022,0.985 ± 0.044,0.908 ± 0.015,0.9445 ± 0.0057
M0R2B7 and related entries (UniProt P28340),1.02 ± 0.097,0.99 ± 0.071,0.992 ± 0.052,0.929 ± 0.096,1.03 ± 0.036,0.989 ± 0.04

# 5 records picked at random from the list so far:
Target,NP40-soluble protein abundance (concentration: 1mM),NP40-soluble protein abundance (concentration: 2mM),NP40-soluble protein abundance (concentration: 4mM),NP40-soluble protein abundance (concentration: 6mM),NP40-soluble protein abundance (concentration: 8mM),NP40-soluble protein abundance (concentration: 10mM)
CHMP2A (UniProt O43633),0.996 ± 0.055,1 ± 0.028,1.03 ± 0.016,1.02 ± 0.049,1.05 ± 0.068,0.936 ± 0.14
GTPBP1 (UniProt O00178),1.06 ± 0.035,1.06 ± 0.019,1.06 ± 0.032,1.03 ± 0.047,1.06 ± 0.018,1.05 ± 0.041
PIK3C2A (UniProt O00443),0.969 ± 0.022,0.944 ± 0.045,0.91 ± 0.088,0.87 ± 0.076,0.868 ± 0.2,0.884 ± 0.21
UniProt O14787-2,0.909 ± 0.044,0.965 ± 0.063,0.919 ± 0.024,0.859 ± 0.094,0.879 ± 0.028,0.936 ± 0.019
TAX1BP3 (UniProt O14907),0.947 ± 0.018,0.948 ± 0.015,0.961 ± 0.033,0.943 ± 0.013,0.95 ± 0.054,0.925 ± 0.026

# (further entries)

Target,NP40-soluble protein abundance (concentration: 1mM),NP40-soluble protein abundance (concentration: 2mM),NP40-soluble protein abundance (concentration: 4mM),NP40-soluble protein abundance (concentration: 6mM),NP40-soluble protein abundance (concentration: 8mM),NP40-soluble protein abundance (concentration: 10mM)
AGPS (UniProt O00116),0.998 ± 0.047,1.01 ± 0.053,0.973 ± 0.023,0.962 ± 0.071,0.992 ± 0.017,0.972 ± 0.059
UniProt O15439 and related entries,0.853 ± 0.061,0.907 ± 0.082,1.05 ± 0.13,1.06 ± 0.15,0.908 ± 0.12,0.884 ± 0.082
UniProt O00115 and related entries,0.877 ± 0.055,0.904 ± 0.048,0.868 ± 0.066,0.928 ± 0.05,0.868 ± 0.057,0.821 ± 0.032
PDE6D (UniProt O43924),1.05 ± 0.12,1.01 ± 0.048,0.975 ± 0.051,0.884 ± 0.1,1.01 ± 0.06,0.963 ± 0.071
XPOT (UniProt O43592),0.992 ± 0.092,0.981 ± 0.064,0.964 ± 0.052,0.889 ± 0.11,0.945 ± 0.045,0.983 ± 0.066
SCAMP2 (UniProt O15127),0.917 ± 0.031,0.961 ± 0.023,0.963 ± 0.04,0.98 ± 0.057,0.922 ± 0.043,0.955 ± 0.039
PFAS (UniProt O15067),0.991 ± 0.012,0.983 ± 0.014,0.98 ± 0.0047,0.951 ± 0.035,0.968 ± 0.011,0.964 ± 0.034
POLR3A (UniProt O14802),1.06 ± 0.035,1.01 ± 0.0059,1.04 ± 0.06,1 ± 0.04,1.08 ± 0.069,1.05 ± 0.032
UniProt O15085 and related entries,0.904 ± 0.063,1.02 ± 0.062,1.04 ± 0.11,1.03 ± 0.03,0.914 ± 0.06,0.95 ± 0.047
RRP9 (UniProt O43818),1.03 ± 0.052,1.147 ± 0.0084,1.22 ± 0.029,1.38 ± 0.033,1.42 ± 0.044,1.62 ± 0.042
STRN (UniProt O43815),1.02 ± 0.031,0.986 ± 0.019,1 ± 0.038,1.02 ± 0.1,1.01 ± 0.037,1.03 ± 0.074
UniProt O60231 and related entries,1.09 ± 0.029,1.09 ± 0.049,1.07 ± 0.043,1.04 ± 0.041,1.09 ± 0.041,1.07 ± 0.046
UniProt O14975 and related entries,1.13 ± 0.17,1.09 ± 0.11,1.12 ± 0.11,1.02 ± 0.093,1.1 ± 0.028,1.14 ± 0.03
UniProt O15040 and related entries,0.947 ± 0.04,0.955 ± 0.062,0.975 ± 0.1,0.978 ± 0.11,0.943 ± 0.12,1.03 ± 0.066
SGTA (UniProt O43765),0.887 ± 0.14,0.891 ± 0.11,0.847 ± 0.072,0.909 ± 0.13,0.846 ± 0.047,0.748 ± 0.13
UniProt O43439-5|O43439 and related entries,0.983 ± 0.075,0.97 ± 0.023,1.03 ± 0.056,1.02 ± 0.12,0.964 ± 0.018,0.997 ± 0.036
UniProt O14763 and related entries,1.04 ± 0.054,1.03 ± 0.14,0.988 ± 0.041,0.9493 ± 0.0016,0.814 ± 0.062,0.898 ± 0.041
RAD51C (UniProt O43502),0.999 ± 0.099,1.01 ± 0.081,1.12 ± 0.061,1.05 ± 0.019,1.09 ± 0.025,0.973 ± 0.043
UniProt O14639 and related entries,1.09 ± 0.028,1.12 ± 0.017,1.11 ± 0.02,1.16 ± 0.064,1.15 ± 0.043,1.21 ± 0.043
UniProt O14617-5,0.963 ± 0.051,0.992 ± 0.014,0.992 ± 0.04,0.9637 ± 0.0074,0.973 ± 0.04,0.9949 ± 0.0085

Target,NP40-soluble protein abundance (concentration: 1mM),NP40-soluble protein abundance (concentration: 2mM),NP40-soluble protein abundance (concentration: 4mM),NP40-soluble protein abundance (concentration: 6mM),NP40-soluble protein abundance (concentration: 8mM),NP40-soluble protein abundance (concentration: 10mM)
ARID1A (UniProt O14497),1.02 ± 0.053,0.992 ± 0.05,0.994 ± 0.071,1.02 ± 0.11,0.986 ± 0.058,0.993 ± 0.052
GIPC1 (UniProt O14908),0.996 ± 0.026,0.996 ± 0.05,0.988 ± 0.041,0.963 ± 0.033,0.961 ± 0.031,0.993 ± 0.035
SART1 (UniProt O43290),1.2 ± 0.071,1.3 ± 0.076,1.36 ± 0.06,1.56 ± 0.11,1.53 ± 0.026,1.61 ± 0.058
UniProt O43683 and related entries,0.972 ± 0.054,1.02 ± 0.038,0.9948 ± 0.0085,1.03 ± 0.057,0.993 ± 0.033,0.979 ± 0.043
MRPS12 (UniProt O15235),0.928 ± 0.019,0.907 ± 0.072,0.873 ± 0.11,0.787 ± 0.13,0.828 ± 0.17,0.831 ± 0.13
RNF113A (UniProt O15541),1.04 ± 0.089,1.04 ± 0.071,1.03 ± 0.067,1.03 ± 0.081,0.968 ± 0.074,1 ± 0.089
BACH1 (UniProt O14867),0.898 ± 0.04,0.921 ± 0.011,0.916 ± 0.033,0.97 ± 0.06,0.888 ± 0.0097,0.91 ± 0.057
CHD2 (UniProt O14647),1.09 ± 0.034,1.1 ± 0.032,1.19 ± 0.042,1.22 ± 0.041,1.24 ± 0.06,1.31 ± 0.071
UniProt O14974 and related entries,0.988 ± 0.051,1.01 ± 0.021,0.989 ± 0.012,1.05 ± 0.036,1 ± 0.031,1.01 ± 0.024
ANKRD28 (UniProt O15084),1.04 ± 0.1,0.988 ± 0.03,0.992 ± 0.051,0.958 ± 0.036,1.02 ± 0.021,0.998 ± 0.037
UniProt O43159,1.07 ± 0.076,1.1 ± 0.025,1.27 ± 0.049,1.27 ± 0.12,1.2 ± 0.026,1.31 ± 0.042
UniProt O15530 and related entries,1.03 ± 0.039,1.03 ± 0.035,1.06 ± 0.042,1 ± 0.13,1.02 ± 0.082,1.07 ± 0.021
UniProt O14593 and related entries,1.06 ± 0.075,0.953 ± 0.11,0.985 ± 0.17,1 ± 0.13,0.987 ± 0.032,1.01 ± 0.057
B4GAT1 (UniProt O43505),1.02 ± 0.044,1.03 ± 0.057,1.02 ± 0.029,0.983 ± 0.059,0.989 ± 0.047,0.995 ± 0.055
BCAT2 (UniProt O15382),1.02 ± 0.11,0.981 ± 0.088,0.986 ± 0.06,0.928 ± 0.15,1.02 ± 0.048,0.977 ± 0.067
UniProt O00217 and related entries,0.979 ± 0.032,0.929 ± 0.063,0.932 ± 0.047,0.956 ± 0.059,0.947 ± 0.041,0.918 ± 0.036
DAPK3 (UniProt O43293),1.09 ± 0.075,1.13 ± 0.081,1.14 ± 0.051,1.21 ± 0.07,1.161 ± 0.0084,1.23 ± 0.073
TRAFD1 (UniProt O14545),0.931 ± 0.079,1.02 ± 0.13,1.01 ± 0.083,0.993 ± 0.11,1.02 ± 0.1,0.988 ± 0.087
CDC7 (UniProt O00311),1.16 ± 0.03,1.21 ± 0.086,1.26 ± 0.078,1.2 ± 0.15,1.19 ± 0.03,1.28 ± 0.093
PPIH (UniProt O43447),0.959 ± 0.011,0.9684 ± 0.0069,0.946 ± 0.015,0.978 ± 0.043,0.947 ± 0.0034,0.979 ± 0.027
